# Source: PubChem BioAssay AID2685 (National Center for Advancing Translational Sciences (NCATS), 2010)
# This is one part of the list. These are further read-outs of the screen, such as a control signal, another cell line or another target. No call is given for them. The list favours compounds with an active or inconclusive main result. The note in brackets gives the kind of curve behind each potency; many fits are weak.
# Assay: qHTS Assay for Lipid Storage Modulators in Drosophila S3 Cells;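 for cell number change: cells counted by Cell Tracker Red CMTPX staining in the red channel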
# Conditions: BODIPY lipid droplet fluorescence, 18-24 h; for cell number change: measured here: cell count max response, cells fed with added oleic acid
# How it was run: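 Drosophila S3 cells loaded with oleic acid (400 uM, as added) and compounds at several concentrations; lipid droplets imaged by 488-nm laser-scanning cytometry, 500–530 nm intensity and object ratio to cell channel. Percent activity normalized to 20 uM Triacsin C.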
# [1] = measured here: lipid fluorescence (Fed channel) AC50, cells fed with added oleic acid
# [2] = measured here: cell number channel AC50, cells fed with added oleic acid
Structure (SMILES),cell number change,AC50 [1],AC50 [2]
CC1CCCCC1NC(=O)CCC(=O)N1CCOc2ccc(Cl)cc21 (stereo not given),28.3%,"2.06 µM [rising, full curve]",
CCc1cccc(C)c1NC(=O)CN(C)Cc1ccc(Br)cc1,33.9%,,"18.4 µM [rising, single point]"
Cc1ccc2c(c1)N(CC(=O)NC1CCCCC1)C(=O)c1cccnc1O2,15%,"6.51 µM [rising, single point]",
Cc1ccc(CNC(=O)c2ccccc2NC(=O)CN2CC(C)OC(C)C2)cc1 (stereo not given),5.41%,,
O=C(O)c1ccc(C2NCC(c3ccccc3Cl)c3c2[nH]c2ccccc32)cc1 (stereo not given),-31.7%,"3.66 µM [falling, full curve]","2.91 µM [falling, partial curve]"
COc1ccc(Cc2nnc(NC(=O)c3ccc(OC(C)=O)cc3)s2)cc1OC,18.9%,"29.1 µM [rising, single point]",
CCN(CC)C(=O)c1ccc(-c2nnc(Nc3ccc(C(=O)N(C)C)cc3)c3ccccc23)cc1,-11.2%,"3.26 µM [falling, partial curve, poor fit]",
COc1cccc2sc(N(CCN(C)C)C(=O)c3ccc4c(c3)CCCC4)nc12,-10.1%,"25.9 µM [falling, single point]",
COc1ccc(CN2C(=O)C(C)Oc3ccccc32)cc1 (stereo not given),5.61%,,
O=C(Nc1ccc(S(=O)(=O)N2CCCCC2)cc1)C1CC(=O)N(c2ccc(F)cc2)C1 (stereo not given),-31.4%,,
CCCCc1cc(=O)oc2cc(C)c(CN3CCCC3)c(O)c12,,"29.1 µM [falling, single point]",
C=C(C)c1cccc(C(C)(C)NC(=O)N2CCOCC2)c1,2.5%,"29.1 µM [falling, single point]",
CN(CC(=O)Nc1ccc(F)cc1)CC(=O)NC1CCCCC1,24.1%,"7.31 µM [falling, partial curve, poor fit]",
CS(=O)(=O)N(CC(=O)N1CCN(Cc2ccc3c(c2)OCO3)CC1)Cc1ccc(Cl)cc1,-38.7%,"16.4 µM [falling, partial curve]","10.3 µM [falling, partial curve, poor fit]"
Cn1c(-c2ccccc2O)cc2ccccc21,-50.4%,"16.4 µM [falling, partial curve, poor fit]","16.4 µM [falling, partial curve, poor fit]"
COc1ccc(/C=C/C(=O)c2cc(F)ccc2OC(=O)c2ccccc2OC)cc1OC,-25.7%,"16.4 µM [falling, single point]",
COc1cccc(NC(=O)c2ccccc2-c2nc(-c3ccccc3)no2)c1,6.6%,"11.6 µM [rising, partial curve, poor fit]",
CC(=O)c1ccc(NC(=O)C2=CC(c3ccc4c(c3)OCO4)=NS(=O)(=O)N2C)cc1,-27.4%,,
CCCCn1c(N)c(N(CC)C(=O)CSc2nnnn2-c2cc(C)ccc2C)c(=O)[nH]c1=O,,"0.13 µM [falling, full curve, poor fit]",
Cc1ccc(OCC(=O)OC2CCS(=O)(=O)C2)cc1 (stereo not given),-23.3%,"5.8 µM [falling, full curve]",
CCOc1cc(C(C(=O)NCC2CCCO2)N(C(=O)Cn2nnc3ccccc32)c2ccc(OC)c(OC)c2)ccc1O (stereo not given),18.5%,"2.91 µM [falling, single point]",

# Given as tab-separated lines: part of the list above.
Structure (SMILES)	cell number change	AC50 [1]	AC50 [2]
CCc1cccc(C)c1NC(=O)CN(C)Cc1ccc(Br)cc1	33.9%		18.4 µM [rising, single point]
Cc1ccc2c(c1)N(CC(=O)NC1CCCCC1)C(=O)c1cccnc1O2	15%	6.51 µM [rising, single point]	
Cc1ccc(CNC(=O)c2ccccc2NC(=O)CN2CC(C)OC(C)C2)cc1 (stereo not given)	5.41%		
O=C(O)c1ccc(C2NCC(c3ccccc3Cl)c3c2[nH]c2ccccc32)cc1 (stereo not given)	-31.7%	3.66 µM [falling, full curve]	2.91 µM [falling, partial curve]

# Remaining list, next part:

Structure (SMILES),cell number change,AC50 [1],AC50 [2]
CC1CCCC(C)N1C(=O)CSc1nc(N)c(-c2ccccc2)c(=O)[nH]1 (stereo not given),-70.5%,"29.1 µM [falling, single point]","20.6 µM [falling, single point]"
CCC(CC)C(=O)N1c2ccc(F)cc2CCC1C (stereo not given),0.34%,"0.731 µM [falling, single point]",
Nc1c(Cl)nc(-c2ccccc2)nc1Cl,32.1%,"2.59 µM [rising, single point]","1.64 µM [rising, partial curve]"
CCOC(=O)c1c(-c2ccc(C)o2)csc1NC(=O)CSc1nnc(C)s1,-12.5%,,
Nn1c(SCC(=O)NC2CCCCC2)nnc1-c1ccco1,43.6%,"25.9 µM [rising, single point]","29.1 µM [rising, single point]"
CCN(CC)C(=O)Oc1ccc2c(=O)c(-c3ccc(OC)cc3)coc2c1,4.53%,,"6.51 µM [rising, single point]"
CCN(CC)CCNC(=O)Cn1nc(Cc2cccnc2)c2ccccc2c1=O,-27.1%,"16.4 µM [falling, single point]","3.26 µM [falling, full curve, poor fit]"
O=C(COC(=O)c1ccc(CO)cc1)c1ccc(S(=O)(=O)N2CCCCC2)cc1,-8.81%,"0.82 µM [falling, full curve, poor fit]",
C=CCNC(=O)/C(C#N)=C/c1c(N2CC(C)OC(C)C2)nc2ccccn2c1=O (stereo not given),-16.7%,"3.66 µM [rising, full curve]",
CCOc1ccc(OCc2cccc(C(=O)N3CCCC3)c2)cc1,206%,,"29.1 µM [rising, single point]"
S=C(c1ccc(-c2ccccc2)o1)N1CCCCC1,21.5%,,
CCN(CC)c1ccc(N=Cc2ccc([N+](=O)[O-])o2)cc1,36.3%,"18.4 µM [falling, single point]","6.51 µM [rising, single point]"
CCc1nc(N2CCN(C(=O)c3ccco3)CC2)c2oc3ccccc3c2n1,6.34%,"29.1 µM [falling, single point]",
COc1ccc(Cn2c(CCC(=O)NCc3ccco3)nc3cccnc32)cc1,-3.74%,"0.326 µM [falling, partial curve, poor fit]",
COc1cc(OC)cc(C(=O)Nc2nc3ccccc3[nH]2)c1,-0.255%,"0.731 µM [rising, single point]","1.84 µM [rising, partial curve]"
CCn1c(-c2ccccc2)csc1=Nc1ccc(S(=O)(=O)O)cc1,0.705%,"0.92 µM [falling, full curve, poor fit]",
CCOC(=O)Cc1csc(SC(C)C(=O)NC2CCCCC2C)n1 (stereo not given),-24.5%,,
CCCCCCOC(=O)C1=C(C)NC(=O)NC1c1ccc(O)cc1 (stereo not given),-20.9%,"2.59 µM [rising, full curve]",
O=C(O)c1c2c(nc3ccc(Cl)cc13)CCC2,,"0.0291 µM [falling, full curve]",
CC(=O)c1ccc(OCC(=O)Nc2cccc(S(=O)(=O)N3CCCC3)c2)cc1,-16.5%,"8.2 µM [falling, partial curve]",
N#Cc1cccc(NC(=O)CC2CCCC2)c1,-4.76%,"29.1 µM [falling, partial curve, poor fit]",

Structure (SMILES),cell number change,AC50 [1],AC50 [2]
CC(C)NC(=O)c1nn(C)c2ccccc12,6.27%,"0.259 µM [rising, full curve, poor fit]",
CCOc1cc(/C=C2/C(=N)N3OC(C)=CC3=NC2=O)ccc1OCCOc1ccccc1,82.9%,,
O=C(/C=C/c1ccco1)NCC(=O)N/N=C/c1ccc([N+](=O)[O-])cc1,51.4%,,"10.3 µM [rising, partial curve]"
COC(=O)CS(=O)(=O)c1ccc(C)cc1,46.9%,"14.6 µM [rising, partial curve, poor fit]","5.8 µM [rising, partial curve, poor fit]"
CCOC(=O)c1sc(NC(=O)c2cccc(S(=O)(=O)N(CC)CC)c2)cc1C,,"1.03 µM [rising, full curve]","0.366 µM [rising, full curve]"
O=C(O)c1ccc(-n2c(-c3ccc(Br)cc3)n[nH]c2=S)cc1,-43.3%,"29.1 µM [falling, single point]","29.1 µM [falling, single point]"
Cc1cccc(NC(=O)COC(=O)CC2CCCC2)c1C,6.81%,"2.31 µM [rising, single point]",
O=C(COC(=O)C1=COCCO1)Nc1ccc2c(c1)OCO2,1.29%,,
CCc1nnc(NC(=O)CSc2nnc3c(n2)[nH]c2ccccc23)s1,50.7%,,
Cc1sc2nc3ccc(N4CCCC4)nn3c(=O)c2c1C,-19.4%,"18.4 µM [falling, single point]",
CCC(C)(C)n1nnnc1C(c1cc2ccc(OC)cc2[nH]c1=O)N1CCCCC1 (stereo not given),-1.28%,,
COc1ccc(N(C(=O)c2csnn2)C(C(=O)NC2CCCC2)c2cccs2)cc1 (stereo not given),-8.97%,,
COC(=O)c1cc2ccccc2c(-c2c(O)ccc3ccccc23)c1O,,"23.1 µM [falling, single point]",
Cc1cccc(N2C(=O)C3C(c4ccccc4)OC4(C(=O)c5ccccc5C4=O)C3C2=O)c1 (stereo not given),-15.3%,,
CCCCSc1nc(C)[nH]c1[N+](=O)[O-],-23.8%,"3.66 µM [falling, full curve]",
O=C(CNC(=O)c1ccccc1)OC(C(=O)Nc1cc(C(F)(F)F)ccc1Cl)c1ccccc1 (stereo not given),-5.76%,"1.3 µM [falling, full curve]",
COc1ccc2cc(C(=O)NCc3ccco3)c(=O)oc2c1,-6.85%,,
CCC1CCCCN1CCN1C(=O)C2C(C(=O)Nc3cccc(OC)c3)C3C=CC2(O3)C1C(=O)NC1CCCCC1 (stereo not given),1.61%,"16.4 µM [falling, partial curve, poor fit]",
CC(=O)c1ccc(OCC(=O)c2ccc(-c3ccccc3)cc2)cc1,13.9%,"7.31 µM [falling, single point]",
